The record followed here is paper PMC2820552.

Sequences of proteins named here, by UniProt entry; tags and fusion partners are left off. A change or cut given only in a name is not applied to a line headed by its entry. A line that says so, or that is headed by a name, gives the form on record, which may keep a tag or linker.
UniProt Q8N122: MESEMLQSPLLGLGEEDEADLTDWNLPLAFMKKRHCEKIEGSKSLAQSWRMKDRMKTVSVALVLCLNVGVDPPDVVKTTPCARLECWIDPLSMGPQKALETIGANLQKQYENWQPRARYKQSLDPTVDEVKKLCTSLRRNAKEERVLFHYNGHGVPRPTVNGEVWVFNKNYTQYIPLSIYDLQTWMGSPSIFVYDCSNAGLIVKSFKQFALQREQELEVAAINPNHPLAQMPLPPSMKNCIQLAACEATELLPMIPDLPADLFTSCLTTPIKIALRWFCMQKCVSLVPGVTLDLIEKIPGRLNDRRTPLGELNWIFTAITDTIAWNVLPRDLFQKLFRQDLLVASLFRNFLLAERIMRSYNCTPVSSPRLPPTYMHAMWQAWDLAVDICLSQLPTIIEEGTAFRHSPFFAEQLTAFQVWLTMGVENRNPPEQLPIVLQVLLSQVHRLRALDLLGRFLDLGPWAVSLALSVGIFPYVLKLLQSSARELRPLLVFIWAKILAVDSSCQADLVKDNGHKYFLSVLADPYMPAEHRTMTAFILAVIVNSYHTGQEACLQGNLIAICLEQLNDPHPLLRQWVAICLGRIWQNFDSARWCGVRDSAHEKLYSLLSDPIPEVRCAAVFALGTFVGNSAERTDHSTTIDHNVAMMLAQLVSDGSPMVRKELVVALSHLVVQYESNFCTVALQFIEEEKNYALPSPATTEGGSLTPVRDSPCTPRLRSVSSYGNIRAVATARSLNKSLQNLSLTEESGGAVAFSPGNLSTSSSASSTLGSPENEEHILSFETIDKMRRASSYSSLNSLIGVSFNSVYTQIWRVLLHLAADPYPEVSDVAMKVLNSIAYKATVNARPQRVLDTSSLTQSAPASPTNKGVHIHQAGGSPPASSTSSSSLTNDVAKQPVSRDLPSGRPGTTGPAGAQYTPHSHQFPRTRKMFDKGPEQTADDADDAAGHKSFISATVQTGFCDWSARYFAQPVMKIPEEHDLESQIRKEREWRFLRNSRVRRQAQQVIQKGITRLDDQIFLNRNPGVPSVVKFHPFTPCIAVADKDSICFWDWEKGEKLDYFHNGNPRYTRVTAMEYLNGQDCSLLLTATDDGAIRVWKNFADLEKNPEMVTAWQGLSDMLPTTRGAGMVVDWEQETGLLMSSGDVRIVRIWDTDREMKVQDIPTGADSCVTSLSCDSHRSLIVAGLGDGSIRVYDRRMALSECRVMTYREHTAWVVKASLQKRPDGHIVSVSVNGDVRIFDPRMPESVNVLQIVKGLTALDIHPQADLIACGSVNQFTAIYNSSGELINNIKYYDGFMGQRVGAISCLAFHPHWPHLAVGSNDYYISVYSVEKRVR
Myc-raptor Ser696/Thr706/Ser711AAA (3A), transiently expressed in HEK293T cells (Q8N122, form named): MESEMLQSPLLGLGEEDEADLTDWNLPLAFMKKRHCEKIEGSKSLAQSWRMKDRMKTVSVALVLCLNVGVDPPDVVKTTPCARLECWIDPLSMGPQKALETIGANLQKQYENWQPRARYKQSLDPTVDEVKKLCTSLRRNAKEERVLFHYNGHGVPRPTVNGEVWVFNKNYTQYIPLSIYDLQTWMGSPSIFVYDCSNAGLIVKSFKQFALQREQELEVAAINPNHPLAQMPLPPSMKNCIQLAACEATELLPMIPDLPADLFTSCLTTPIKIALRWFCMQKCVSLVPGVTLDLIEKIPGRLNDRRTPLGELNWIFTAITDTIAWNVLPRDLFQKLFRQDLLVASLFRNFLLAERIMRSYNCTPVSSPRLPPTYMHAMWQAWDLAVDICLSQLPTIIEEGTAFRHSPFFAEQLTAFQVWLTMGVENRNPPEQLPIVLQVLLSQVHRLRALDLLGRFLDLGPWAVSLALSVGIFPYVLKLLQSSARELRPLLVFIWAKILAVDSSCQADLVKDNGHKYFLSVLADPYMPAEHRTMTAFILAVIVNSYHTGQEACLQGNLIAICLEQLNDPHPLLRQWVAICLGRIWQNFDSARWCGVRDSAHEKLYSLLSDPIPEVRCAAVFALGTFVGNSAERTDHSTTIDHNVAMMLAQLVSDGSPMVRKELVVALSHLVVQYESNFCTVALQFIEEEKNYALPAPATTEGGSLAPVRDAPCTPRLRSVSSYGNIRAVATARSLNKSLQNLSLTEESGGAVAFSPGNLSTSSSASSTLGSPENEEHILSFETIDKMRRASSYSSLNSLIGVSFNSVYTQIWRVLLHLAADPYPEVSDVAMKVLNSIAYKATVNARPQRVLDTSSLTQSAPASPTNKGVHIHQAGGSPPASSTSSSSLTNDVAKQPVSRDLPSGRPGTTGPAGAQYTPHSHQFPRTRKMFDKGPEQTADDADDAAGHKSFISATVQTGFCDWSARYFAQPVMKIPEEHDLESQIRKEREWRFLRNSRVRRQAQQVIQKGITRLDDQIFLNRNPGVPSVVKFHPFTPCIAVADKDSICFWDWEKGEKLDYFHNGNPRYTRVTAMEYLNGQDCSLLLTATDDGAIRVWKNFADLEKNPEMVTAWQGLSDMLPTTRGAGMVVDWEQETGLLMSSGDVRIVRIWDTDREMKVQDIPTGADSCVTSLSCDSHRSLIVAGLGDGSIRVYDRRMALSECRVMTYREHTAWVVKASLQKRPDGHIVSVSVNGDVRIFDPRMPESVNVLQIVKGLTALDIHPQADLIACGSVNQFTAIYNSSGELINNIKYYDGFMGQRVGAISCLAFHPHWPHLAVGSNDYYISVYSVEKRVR
UniProt P23443: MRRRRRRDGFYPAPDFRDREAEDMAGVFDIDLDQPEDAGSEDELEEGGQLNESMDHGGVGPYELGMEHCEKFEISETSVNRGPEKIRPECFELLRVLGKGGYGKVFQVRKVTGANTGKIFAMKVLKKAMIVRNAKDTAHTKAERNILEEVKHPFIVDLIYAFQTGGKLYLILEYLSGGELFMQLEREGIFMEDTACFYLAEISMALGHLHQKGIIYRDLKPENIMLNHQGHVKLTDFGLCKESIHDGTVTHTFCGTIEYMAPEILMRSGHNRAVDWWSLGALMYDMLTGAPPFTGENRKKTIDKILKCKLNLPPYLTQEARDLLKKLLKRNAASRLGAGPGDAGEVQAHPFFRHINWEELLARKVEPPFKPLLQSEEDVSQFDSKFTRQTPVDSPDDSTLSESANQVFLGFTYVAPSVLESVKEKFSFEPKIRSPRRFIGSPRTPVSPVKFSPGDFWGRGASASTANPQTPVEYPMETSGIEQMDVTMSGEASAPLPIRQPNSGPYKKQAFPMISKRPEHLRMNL
UniProt P14635: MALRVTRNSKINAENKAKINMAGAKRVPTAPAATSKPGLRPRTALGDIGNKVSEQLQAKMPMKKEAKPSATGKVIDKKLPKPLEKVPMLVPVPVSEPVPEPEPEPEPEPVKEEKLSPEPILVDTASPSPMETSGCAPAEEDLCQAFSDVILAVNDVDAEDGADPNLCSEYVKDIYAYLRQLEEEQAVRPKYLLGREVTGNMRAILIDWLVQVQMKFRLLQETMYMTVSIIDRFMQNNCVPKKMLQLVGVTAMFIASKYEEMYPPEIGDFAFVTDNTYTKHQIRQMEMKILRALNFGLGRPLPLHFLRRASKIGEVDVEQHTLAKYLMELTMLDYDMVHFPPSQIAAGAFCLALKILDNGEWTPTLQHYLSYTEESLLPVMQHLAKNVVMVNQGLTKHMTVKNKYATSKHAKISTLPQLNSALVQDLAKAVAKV

These are yes or no findings as the source states them, for the method shown. In cells and extracts the contact can be indirect. Some binding calls cover weakened binding; strength is not graded here.

The target of assay [1] is myc-wt raptor, stably expressed in Hela cells with knockdown of endogenous raptor (human) (UniProt Q8N122). Kind of assay: co-IP; Hela cells stably expressing myc-raptor (wt or 3A) with knockdown of endogenous raptor; anti-myc immunoprecipitation, blot for endogenous proteins; lysis buffer 2 (40 mM HEPES pH 7.5, 150 mM NaCl, 0.3% CHAPS); cells with or without taxol (16 h) or nocodazole (16 h), then Torin1 or ….

Assay [2] addresses Myc-raptor (wild-type), transiently expressed in HEK293T cells (human) (UniProt Q8N122). Kind of assay: co-IP; HEK293T cells transiently co-transfected; anti-myc immunoprecipitation of myc-raptor (wt or 3A), blots for Flag and HA tags; lysis buffer 2 (40 mM HEPES pH 7.5, 150 mM NaCl, 0.3% CHAPS); cells with or without nocodazole for 16 h.
Assay [3] has as its target Myc-raptor Ser696/Thr706/Ser711AAA (3A), transiently expressed in HEK293T cells (human) (UniProt Q8N122). The description is as above.
For the next assay, the target named is Flag-S6K (UniProt P23443). As to the kind of experiment: co-IP; reciprocal: HEK293T cells transiently co-transfected with myc-raptor (wt or 3A) and Flag-S6K or Flag-4EBP1; anti-Flag immunoprecipitation, blot for raptor; lysis buffer 2 (0.3% CHAPS); cells with or without nocodazole for 16 h.

On to “endogenous cyclin B (from UniProt P14635 1-433)”, for which the binding entry in assay [1] is reported as “binds”.
For the substance Flag-S6K (from UniProt P23443 1-525), the binding result in assay [2] and in assay [3] was “binds” each time.
For “Myc-raptor (wild-type), transiently expressed in HEK293T cells (from UniProt Q8N122 1-1335)”, the binding entry in the assay with Flag-S6K is on record as “binds”.
The same measure, in the same setting: then “Myc-raptor Ser696/Thr706/Ser711AAA (3A), transiently expressed in HEK293T cells (from UniProt Q8N122 1-1335)”, with “binds”.
